Test results from US20030109051A1, “Spin trap for use in biological systems” (RANDOX LABORATORIES LTD, priority 2001, published 2003).

Assay: Sensitivity study of DMNB reacting with nitric oxide (ESR signal to noise)
Conditions: DMNB 0.1 M, 1 hr 40 min, room temperature

With Cc1cccc(C)c1N=O [DMNB, 2,6-Dimethylnitrosobenzene] the “Limit of detection (S/N = 3)” value was 6.73 µM.
